Values from PubChem BioAssay AID1259254 (NCATS, 2017).
Shown is one part, drawn at random, of about 59,000 reagents tested. Over the whole deposit, about 1,550 (2.6%) got an active call. 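G2 share is only a proxy for re-replication; each gene was hit by three separate siRNAs, and active genes were retested.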 Raw values are not corrected between plates. Reagents against one gene are numbered here. Not stated in the record: the amount of reagent.

Aim: 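Genome-wide screen for genes that prevent DNA re-replication in cancer cells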 (primary screen)
Cell system: human HCT116 colorectal cancer cells
Knock-down reagent: single siRNA against human genes
Time to read-out: 3 days
Read-out: 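Imaged Hoechst DNA stain sorts each cell into a cycle phase by DNA amount; per plate, G2 fraction set to 0% for non-targeting and 100% for GMNN siRNA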
Scale: G2 robust z-score and G2 cells, % of GMNN control: higher = more G2 cells, more excess DNA replication; raw share of cells in G2: higher = larger share of cells with G2 DNA content
Rule for the call: 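Active siRNAs have a G2 robust z of 5 or more median absolute deviations over the median, which in these data means about 38% or higher of GMNN control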

target | reagent | G2 robust z-score | G2 cells, % of GMNN control | raw share of cells in G2 (%) | Outcome
DPP7 (GeneID 29952) | 1 | 0.639 | 7.47 | 7.55 | inactive
DPP7 (GeneID 29952) | 2 | -0.386 | 0.254 | 4 | inactive
DPP7 (GeneID 29952) | 3 | 3.66 | 28.7 | 15.6 | inactive
DPH3 (GeneID 285381) | 1 | -0.4 | 0.154 | 3.7 | inactive
DPH3 (GeneID 285381) | 2 | -0.442 | -0.146 | 2.99 | inactive
DPH3 (GeneID 285381) | 3 | -0.298 | 0.869 | 3.53 | inactive
XRCC5 (GeneID 7520) | 1 | 0.174 | 4.19 | 5.82 | inactive
XRCC5 (GeneID 7520) | 2 | 2.67 | 21.8 | 11.6 | inactive
XRCC5 (GeneID 7520) | 3 | -1.13 | -4.95 | 3.51 | inactive
LOC643441 (GeneID 643441) | 1 | -0.351 | 0.497 | 3.83 | inactive
LOC643441 (GeneID 643441) | 2 | 1.94 | 16.6 | 9.26 | inactive
LOC643441 (GeneID 643441) | 3 | -0.71 | -2.03 | 2.55 | inactive
IL4R (GeneID 3566) | 1 | -0.902 | -3.38 | 4.4 | inactive
IL4R (GeneID 3566) | 2 | -0.395 | 0.19 | 4.27 | inactive
IL4R (GeneID 3566) | 3 | -0.157 | 1.86 | 5.72 | inactive
GPN3 (GeneID 51184) | 1 | -0.466 | -0.308 | 5.81 | inactive
GPN3 (GeneID 51184) | 2 | -0.951 | -3.72 | 2.87 | inactive
GPN3 (GeneID 51184) | 3 | -0.903 | -3.38 | 2.5 | inactive
FEZ2 (GeneID 9637) | 1 | 0.228 | 4.57 | 7.4 | inactive
FEZ2 (GeneID 9637) | 2 | -0.693 | -1.91 | 3.15 | inactive
FEZ2 (GeneID 9637) | 3 | 5.67 | 42.9 | 19 | active
CSMD3 (GeneID 114788) | 1 | 0.162 | 4.11 | 5.74 | inactive
CSMD3 (GeneID 114788) | 2 | 1.87 | 16.1 | 8.14 | inactive
CSMD3 (GeneID 114788) | 3 | 0.207 | 4.43 | 3.11 | inactive
GALNT3 (GeneID 2591) | 1 | 0.276 | 4.91 | 7.13 | inactive
GALNT3 (GeneID 2591) | 2 | 0.6 | 7.19 | 7.85 | inactive
GALNT3 (GeneID 2591) | 3 | -0.669 | -1.74 | 3.04 | inactive
CLNS1A (GeneID 1207) | 1 | -1.19 | -5.43 | 2.22 | inactive
CLNS1A (GeneID 1207) | 2 | 0.278 | 4.93 | 6.72 | inactive
CLNS1A (GeneID 1207) | 3 | 1.15 | 11.1 | 9.04 | inactive
CLEC12A (GeneID 160364) | 1 | 0.488 | 6.4 | 4.79 | inactive
CLEC12A (GeneID 160364) | 2 | 0.462 | 6.22 | 5.83 | inactive
CLEC12A (GeneID 160364) | 3 | 0.732 | 8.12 | 5.68 | inactive
RUNX2 (GeneID 860) | 1 | 1.67 | 14.7 | 9.3 | inactive
RUNX2 (GeneID 860) | 2 | -1.02 | -4.22 | 2.87 | inactive
RUNX2 (GeneID 860) | 3 | 0.618 | 7.32 | 5.76 | inactive
SSR4P1 (GeneID 728039) | 1 | 0.333 | 5.31 | 5.16 | inactive
SSR4P1 (GeneID 728039) | 2 | 1.29 | 12.1 | 8.12 | inactive
SSR4P1 (GeneID 728039) | 3 | -0.149 | 1.92 | 3.55 | inactive
SSR4P1 (GeneID 728039) | 4 | -1.28 | -6.07 | 1.3 | inactive
SSR4P1 (GeneID 728039) | 5 | -0.326 | 0.672 | 4.52 | inactive
SSR4P1 (GeneID 728039) | 6 | 1.27 | 11.9 | 7.42 | inactive
CCDC91 (GeneID 55297) | 1 | -0.975 | -3.89 | 3.03 | inactive
CCDC91 (GeneID 55297) | 2 | 1.27 | 11.9 | 9.06 | inactive
CCDC91 (GeneID 55297) | 3 | 2.83 | 22.9 | 10.4 | inactive
CD1A (GeneID 909) | 1 | -0.0962 | 2.29 | 6.38 | inactive
CD1A (GeneID 909) | 2 | 0.132 | 3.89 | 5.51 | inactive
CD1A (GeneID 909) | 3 | -0.65 | -1.61 | 2.89 | inactive

Records above whose target name begins with F or f:
target | reagent | G2 robust z-score | G2 cells, % of GMNN control | raw share of cells in G2 (%) | Outcome
FEZ2 (GeneID 9637) | 1 | 0.228 | 4.57 | 7.4 | inactive
FEZ2 (GeneID 9637) | 2 | -0.693 | -1.91 | 3.15 | inactive
FEZ2 (GeneID 9637) | 3 | 5.67 | 42.9 | 19 | active
